Our source for the binding signal values is paper PMC5996148.

Some test systems named below: UBL3 (human); UBOX5 (human); UBQLN1 (human); UBQLN2 (human); UBR2 (human); UBTD2 (human); UBXD1 (human); UCHL1 (human); UCHL3 (human); UCHL5 (human); UCK2 (human); UEVLD (human); UGP2 (human); UGT1A10 (human); ULK4 (human); UMPS (human).
Test in all cases: protein microarray (ProtoArray v5.0), streptavidin-Alexa Fluor 647
Holding throughout (settings): 3'-biotin; 20 mM Tris (pH 7.5), 5 mM MgCl2, 100 mM KCl, 0.1% Tween-20, A/T-rich and random oligonucleotide blockers; temperature not stated; high values mean tight binding

Test [1] concerns UBX domain-containing protein 7 (human).
The next test deals with T1, UBXD3 (UniProt Q96LJ8).
T1 sequence: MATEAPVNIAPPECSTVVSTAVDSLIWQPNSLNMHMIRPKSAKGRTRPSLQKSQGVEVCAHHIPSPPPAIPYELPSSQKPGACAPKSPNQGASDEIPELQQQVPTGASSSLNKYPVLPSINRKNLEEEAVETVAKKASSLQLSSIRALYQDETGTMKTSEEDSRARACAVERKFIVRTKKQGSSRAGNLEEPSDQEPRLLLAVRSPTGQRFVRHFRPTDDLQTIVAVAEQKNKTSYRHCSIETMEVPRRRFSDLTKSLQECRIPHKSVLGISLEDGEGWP

The target of a further test is T2, UCK1 (UniProt Q9HA47).
T2 sequence: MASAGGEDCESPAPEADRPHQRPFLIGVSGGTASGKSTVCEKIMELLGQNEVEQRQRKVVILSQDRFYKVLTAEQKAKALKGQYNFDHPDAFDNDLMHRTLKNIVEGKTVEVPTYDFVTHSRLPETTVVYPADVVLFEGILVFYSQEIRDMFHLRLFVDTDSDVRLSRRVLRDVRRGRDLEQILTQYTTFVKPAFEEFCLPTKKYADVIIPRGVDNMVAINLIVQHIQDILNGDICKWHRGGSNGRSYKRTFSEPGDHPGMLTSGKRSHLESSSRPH

In test [2] the test system is UPF0417 protein FAM163A (human).

Where “and” joins values, the source holds several entries; their conditions need not be identical. Equal values may be shown once. This is one part of the list. For some assays here: The exact form of the protein is not confirmed.

With “GGGAGGCTGAGGCAGG [G4-1 biotinylated (PQS2)]”, the binding signal is -0.236 z-score in the test with UBL3 (human); -0.323 z-score in the test on UBOX5 (human); -0.373 z-score in the test on UBQLN1 (human); -0.358 z-score in the test on UBQLN2 (human); -0.315 z-score in the test with UBR2 (human); -0.335 z-score in the test on UBTD2 (human). For the same sequence, the binding signal was -0.312 z-score in test [1]; -0.301 z-score in the test with UBXD1 (human); 3.52 z-score with UBXD3; -0.353 z-score in the test with UCHL1 (human); -0.353 z-score with UCHL3 (human); -0.36 z-score and -0.347 z-score in the test on UCHL5 (human). Moreover, the binding signal is -0.309 z-score with UCK1; -0.328 z-score in the test with UCK2 (human); -0.303 z-score with UEVLD (human); -0.349 z-score and -0.325 z-score in the test with UGP2 (human); -0.28 z-score with UGT1A10 (human); -0.336 z-score in the test with ULK4 (human). The results for the binding signal (in the test on UMPS (human); in test [2]) were -0.335 z-score and -0.349 z-score, respectively.
